# From the supplement of paper PMC8728848
# Some of the results follow.
# B1: Pwp6 (Candida glabrata) (protein)
# chain: MGSSHHHHHHSSGLVPRGSHMASANLPKLTNICQIPDNVKKTSGFKGEIRRIGLFPPGGDYTYLLKFPSTGSTASDTISLTTKPQLSTSGWFPSLFGHTYFIKADLLVYMVAYFVPTETGEYTFKLVNSDDAAVMYVGNPSAFPCGSIDTWPEPRKEDINVCDKISASTKLYMEKGLAYPVRLVWYNGGGDGQFNAQFIDPSGTTHTDWNGYVWQYDACTDCDYK
# Assays:
# Test in all cases: glycan array binding signal (z-score within array); higher = stronger binding
# Conditions in all cases: glycan notation: IUPAC condensed, linker removed
# GlcNAc(b1-3)Gal(b1-4)Glc = molecular target: GlcNAc(b1-3)Gal(b1-4)Glc
# How it was run: (§1)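 Arrays were curated from the Consortium for Functional Glycomics database, 3228 in total, and kept only where the protein sequence was available. Binding is expressed as a within-array Z-score. This score was averaged across arrays of the same protein sequence at different concentrations or buffers and across linkers, and negative values can be read as non-binding.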
# [1] = molecular target: GlcNAc(b1-3)Gal(b1-4)GlcNAc
# How it was run: as §1
# [2] = molecular target: GlcNAc(b1-3)Gal(b1-4)GlcNAc(b1-2)Man(a1-3)[GlcNAc(b1-3)Gal(b1-4)GlcNAc(b1-2)Man(a1-6)]Man(b1-4)GlcNAc(b1-4)GlcNAc
# How it was run: as §1
# [3] = molecular target: GlcNAc(b1-3)Gal(b1-4)GlcNAc(b1-2)Man(a1-3)[GlcNAc(b1-3)Gal(b1-4)GlcNAc(b1-2)Man(a1-6)]Man(b1-4)GlcNAc(b1-4)[Fuc(a1-6)]GlcNAc
# How it was run: as §1
# [4] = molecular target: GlcNAc(b1-3)Gal(b1-4)GlcNAc(b1-2)[GlcNAc(b1-3)Gal(b1-4)GlcNAc(b1-6)]Man(a1-6)[GlcNAc(b1-3)Gal(b1-4)GlcNAc(b1-2)Man(a1-3)]Man(b1-4)GlcNAc(b1-4)GlcNAc
# How it was run: as §1
# [5] = molecular target: GlcNAc(b1-3)Gal(b1-4)GlcNAc(b1-3)Gal(b1-4)GlcNAc
# How it was run: as §1
# [6] = molecular target: GlcNAc(b1-3)Gal(b1-4)GlcNAc(b1-3)Gal(b1-4)GlcNAc(b1-2)Man(a1-3)[GlcNAc(b1-3)Gal(b1-4)GlcNAc(b1-3)Gal(b1-4)GlcNAc(b1-2)Man(a1-6)]Man(b1-4)GlcNAc(b1-4)GlcNAc
# How it was run: as §1
# [7] = molecular target: GlcNAc(b1-3)Gal(b1-4)GlcNAc(b1-3)Gal(b1-4)GlcNAc(b1-2)Man(a1-3)[GlcNAc(b1-3)Gal(b1-4)GlcNAc(b1-3)Gal(b1-4)GlcNAc(b1-2)Man(a1-6)]Man(b1-4)GlcNAc(b1-4)[Fuc(a1-6)]GlcNAc
# How it was run: as §1
# [8] = molecular target: GlcNAc(b1-3)Gal(b1-4)GlcNAc(b1-3)Gal(b1-4)GlcNAc(b1-2)[GlcNAc(b1-3)Gal(b1-4)GlcNAc(b1-3)Gal(b1-4)GlcNAc(b1-6)]Man(a1-6)[GlcNAc(b1-3)Gal(b1-4)GlcNAc(b1-3)Gal(b1-4)GlcNAc(b1-2)Man(a1-3)]Man(b1-4)GlcNAc(b1-4)[Fuc(a1-6)]GlcNAc
# How it was run: as §1
# [9] = molecular target: GlcNAc(b1-3)Gal(b1-4)GlcNAc(b1-3)Gal(b1-4)GlcNAc(b1-3)Gal(b1-4)GlcNAc(b1-2)Man(a1-3)[GlcNAc(b1-3)Gal(b1-4)GlcNAc(b1-3)Gal(b1-4)GlcNAc(b1-3)Gal(b1-4)GlcNAc(b1-2)Man(a1-6)]Man(b1-4)GlcNAc(b1-4)GlcNAc
# How it was run: as §1
# [10] = molecular target: GlcNAc(b1-3)Gal(b1-4)GlcNAc(b1-3)Gal(b1-4)GlcNAc(b1-3)Gal(b1-4)GlcNAc(b1-2)Man(a1-3)[GlcNAc(b1-3)Gal(b1-4)GlcNAc(b1-3)Gal(b1-4)GlcNAc(b1-3)Gal(b1-4)GlcNAc(b1-2)Man(a1-6)]Man(b1-4)GlcNAc(b1-4)[Fuc(a1-6)]GlcNAc
# How it was run: as §1
# [11] = molecular target: GlcNAc(b1-3)Gal(b1-4)GlcNAc(b1-3)Gal(b1-4)GlcNAc(b1-3)Gal(b1-4)GlcNAc(b1-2)[GlcNAc(b1-3)Gal(b1-4)GlcNAc(b1-3)Gal(b1-4)GlcNAc(b1-3)Gal(b1-4)GlcNAc(b1-6)]Man(a1-6)[GlcNAc(b1-3)Gal(b1-4)GlcNAc(b1-3)Gal(b1-4)GlcNAc(b1-3)Gal(b1-4)GlcNAc(b1-2)Man(a1-3)]Man(b1-4)GlcNAc(b1-4)[Fuc(a1-6)]GlcNAc
# How it was run: as §1
# [12] = molecular target: GlcNAc(b1-3)Gal(b1-4)GlcNAc(b1-3)Gal(b1-4)GlcNAc(b1-3)Gal(b1-4)GlcNAc(b1-3)Gal(b1-4)GlcNAc(b1-2)Man(a1-3)[GlcNAc(b1-3)Gal(b1-4)GlcNAc(b1-3)Gal(b1-4)GlcNAc(b1-3)Gal(b1-4)GlcNAc(b1-3)Gal(b1-4)GlcNAc(b1-2)Man(a1-6)]Man(b1-4)GlcNAc(b1-4)GlcNAc
# How it was run: as §1
# [13] = molecular target: GlcNAc(b1-3)Gal(b1-4)GlcNAc(b1-3)Gal(b1-4)GlcNAc(b1-3)Gal(b1-4)GlcNAc(b1-3)Gal(b1-4)GlcNAc(b1-2)Man(a1-3)[GlcNAc(b1-3)Gal(b1-4)GlcNAc(b1-3)Gal(b1-4)GlcNAc(b1-3)Gal(b1-4)GlcNAc(b1-3)Gal(b1-4)GlcNAc(b1-2)Man(a1-6)]Man(b1-4)GlcNAc(b1-4)[Fuc(a1-6)]GlcNAc
# How it was run: as §1
# [14] = molecular target: GlcNAc(b1-3)Gal(b1-4)GlcNAc(b1-3)Gal(b1-4)GlcNAc(b1-3)Gal(b1-4)GlcNAc(b1-3)Gal(b1-4)GlcNAc(b1-2)[GlcNAc(b1-3)Gal(b1-4)GlcNAc(b1-3)Gal(b1-4)GlcNAc(b1-3)Gal(b1-4)GlcNAc(b1-3)Gal(b1-4)GlcNAc(b1-6)]Man(a1-6)[GlcNAc(b1-3)Gal(b1-4)GlcNAc(b1-3)Gal(b1-4)GlcNAc(b1-3)Gal(b1-4)GlcNAc(b1-3)Gal(b1-4)GlcNAc(b1-2)Man(a1-3)]Man(b1-4)GlcNAc(b1-4)[Fuc(a1-6)]GlcNAc
# How it was run: as §1
# [15] = molecular target: GlcNAc(b1-3)Gal(b1-4)GlcNAc(b1-3)Gal(b1-4)GlcNAc(b1-3)GalNAc
# How it was run: as §1
# [16] = molecular target: GlcNAc(b1-3)Gal(b1-4)GlcNAc(b1-3)GalNAc
# How it was run: as §1
# [17] = molecular target: GlcNAc(b1-3)Gal(b1-4)GlcNAc(b1-3)[GlcNAc(b1-3)Gal(b1-4)GlcNAc(b1-3)]GalNAc
# How it was run: as §1
# [18] = molecular target: GlcNAc(b1-3)Gal(b1-4)GlcNAc(b1-6)[Gal(b1-3)]GalNAc
# How it was run: as §1
# [19] = molecular target: GlcNAc(b1-3)Gal(b1-4)GlcNAc(b1-6)[GlcNAc(b1-3)Gal(b1-3)]GalNAc
# How it was run: as §1
# [20] = molecular target: GlcNAc(b1-3)Gal(b1-4)GlcNAc(b1-6)[GlcNAc(b1-3)]Gal(b1-4)GlcNAc
# How it was run: as §1
# GlcNAc(b1-3)GalNAc = molecular target: GlcNAc(b1-3)GalNAc
# How it was run: as §1
# GlcNAc(b1-3)Man = molecular target: GlcNAc(b1-3)Man
# How it was run: as §1
# [21] = molecular target: GlcNAc(b1-3)[GlcNAc(b1-4)][GlcNAc(b1-6)]GlcNAc
# How it was run: as §1
# [22] = molecular target: GlcNAc(b1-3)[GlcNAc(b1-6)]Gal(b1-4)GlcNAc
# How it was run: as §1
# [23] = molecular target: GlcNAc(b1-3)[GlcNAc(b1-6)]GalNAc
# How it was run: as §1
# [24] = molecular target: GlcNAc(b1-4)Gal(b1-4)GlcNAc
# How it was run: as §1
# GlcNAc(b1-4)GlcNAc = molecular target: GlcNAc(b1-4)GlcNAc
# How it was run: as §1
# [25] = molecular target: GlcNAc(b1-4)GlcNAc(b1-4)GlcNAc
# How it was run: as §1
# [26] = molecular target: GlcNAc(b1-4)GlcNAc(b1-4)GlcNAc(b1-4)GlcNAc(b1-4)GlcNAc
# How it was run: as §1
# [27] = molecular target: GlcNAc(b1-4)GlcNAc(b1-4)GlcNAc(b1-4)GlcNAc(b1-4)GlcNAc(b1-4)GlcNAc
# How it was run: as §1
# [28] = molecular target: GlcNAc(b1-4)[GlcNAc(b1-6)]GalNAc
# How it was run: as §1
# [29] = molecular target: GlcNAc(b1-6)Gal(b1-4)GlcNAc
# How it was run: as §1
# GlcNAc(b1-6)GalNAc = molecular target: GlcNAc(b1-6)GalNAc
# How it was run: as §1
# [30] = molecular target: GlcNAc6S(b1-3)Gal(b1-4)GlcNAc
# How it was run: as §1
# Kdn(a2-3)Gal(b1-3)GalNAc = molecular target: Kdn(a2-3)Gal(b1-3)GalNAc
# How it was run: as §1
# Kdn(a2-3)Gal(b1-3)GlcNAc = molecular target: Kdn(a2-3)Gal(b1-3)GlcNAc
# How it was run: as §1
# Kdn(a2-3)Gal(b1-4)Glc = molecular target: Kdn(a2-3)Gal(b1-4)Glc
# How it was run: as §1
# Kdn(a2-3)Gal(b1-4)GlcNAc = molecular target: Kdn(a2-3)Gal(b1-4)GlcNAc
# How it was run: as §1
# [31] = molecular target: Kdn(a2-3)Gal(b1-4)[Fuc(a1-3)]GlcNAc
# How it was run: as §1
# Kdn(a2-6)Gal(b1-4)GlcNAc = molecular target: Kdn(a2-6)Gal(b1-4)GlcNAc
# How it was run: as §1
# [32] = molecular target: Man(a1-2)Man(a1-2)Man(a1-3)Man
# How it was run: as §1
# [33] = molecular target: Man(a1-2)Man(a1-2)Man(a1-6)[Man(a1-3)]Man
# How it was run: as §1
# Man(a1-2)Man(a1-3)Man = molecular target: Man(a1-2)Man(a1-3)Man
# How it was run: as §1
# [34] = molecular target: Man(a1-2)Man(a1-3)[Man(a1-2)Man(a1-6)]Man
# How it was run: as §1
binder,measurement,setting,value
B1,glycan array binding signal (z-score),GlcNAc(b1-3)Gal(b1-4)Glc,-0.721
same,glycan array binding signal (z-score),[1],-0.696
same,glycan array binding signal (z-score),[2],2.27
same,glycan array binding signal (z-score),[3],0.785
same,glycan array binding signal (z-score),[4],2.94
same,glycan array binding signal (z-score),[5],-0.261
same,glycan array binding signal (z-score),[6],3.63
same,glycan array binding signal (z-score),[7],1.15
same,glycan array binding signal (z-score),[8],3.3
same,glycan array binding signal (z-score),[9],1.43
same,glycan array binding signal (z-score),[10],3.79
same,glycan array binding signal (z-score),[11],3.71
same,glycan array binding signal (z-score),[12],2.69
same,glycan array binding signal (z-score),[13],1.85
same,glycan array binding signal (z-score),[14],2.5
same,glycan array binding signal (z-score),[15],-0.218
same,glycan array binding signal (z-score),[16],1.84
same,glycan array binding signal (z-score),[17],0.485
same,glycan array binding signal (z-score),[18],0.312
same,glycan array binding signal (z-score),[19],0.366
same,glycan array binding signal (z-score),[20],1.97
same,glycan array binding signal (z-score),GlcNAc(b1-3)GalNAc,-0.863
same,glycan array binding signal (z-score),GlcNAc(b1-3)Man,0.254
same,glycan array binding signal (z-score),[21],-0.466
same,glycan array binding signal (z-score),[22],-0.62
same,glycan array binding signal (z-score),[23],-0.362
same,glycan array binding signal (z-score),[24],-0.713
same,glycan array binding signal (z-score),GlcNAc(b1-4)GlcNAc,0.223
same,glycan array binding signal (z-score),[25],-0.73
same,glycan array binding signal (z-score),[26],0.227
same,glycan array binding signal (z-score),[27],-0.261
same,glycan array binding signal (z-score),[28],-0.583
same,glycan array binding signal (z-score),[29],-0.115
same,glycan array binding signal (z-score),GlcNAc(b1-6)GalNAc,-0.434
same,glycan array binding signal (z-score),[30],-0.643
same,glycan array binding signal (z-score),Kdn(a2-3)Gal(b1-3)GalNAc,0.281
same,glycan array binding signal (z-score),Kdn(a2-3)Gal(b1-3)GlcNAc,-0.179
same,glycan array binding signal (z-score),Kdn(a2-3)Gal(b1-4)Glc,-0.386
same,glycan array binding signal (z-score),Kdn(a2-3)Gal(b1-4)GlcNAc,-0.49
same,glycan array binding signal (z-score),[31],-0.259
same,glycan array binding signal (z-score),Kdn(a2-6)Gal(b1-4)GlcNAc,-0.075
same,glycan array binding signal (z-score),[32],-0.521
same,glycan array binding signal (z-score),[33],-0.253
same,glycan array binding signal (z-score),Man(a1-2)Man(a1-3)Man,-0.665
same,glycan array binding signal (z-score),[34],-0.667

# Retrieved one by one from the entries so far:
binder,measurement,setting,value
B1,glycan array binding signal (z-score),[9],1.43
same,glycan array binding signal (z-score),[28],-0.583
same,glycan array binding signal (z-score),Kdn(a2-6)Gal(b1-4)GlcNAc,-0.075
